PubChem BioAssay AID1159584 | Peter MacCallum Cancer Centre – 2016

Test: 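Genes that CDH1-null MCF10A cells selectively depend on to survive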 (primary screen)
Cell system: human MCF10A breast epithelial cells, parental and CDH1-null
Knock-down reagent: siRNA against human genes
Measurement: 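Cell viability by CellTiter-Glo ATP luminescence, each line scaled to the mean of mock wells across plates, then CDH1-null over parental ratio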
Scale: CDH1-null / parental viability ratio: higher = CDH1-null cells survive relatively better than parental; CDH1-null viability vs mock: higher = more viable CDH1-null cells
Units: CDH1-null viability vs mock in fraction of mock
The whole screen tested about 18,000 reagents; this is a part drawn at random. Reagents against one gene are numbered here. Further read-outs or replicates are left out here. The record does not give: the amount of reagent, the time to read-out.

With knock-down of GLTPD2 (glycolipid transfer protein domain containing 2) the results were CDH1-null / parental viability ratio 1.18; CDH1-null viability vs mock 1.04.
DEGS2 (delta 4-desaturase, sphingolipid 2) showed CDH1-null / parental viability ratio 1.35; CDH1-null viability vs mock 1.
After knock-down of IGSF22 (immunoglobulin superfamily member 22), the screen gave CDH1-null / parental viability ratio 0.9; CDH1-null viability vs mock 1.07.
For PGLYRP4 (peptidoglycan recognition protein 4), the values are CDH1-null / parental viability ratio 0.94; CDH1-null viability vs mock 0.92.
For AP3M1 (adaptor related protein complex 3 subunit mu 1), the values are CDH1-null / parental viability ratio 1.03; CDH1-null viability vs mock 0.8.
DRC2 (dynein regulatory complex subunit 2) scored CDH1-null / parental viability ratio 1.09; CDH1-null viability vs mock 1.
With knock-down of KRTDAP (keratinocyte differentiation associated protein), the screen gave CDH1-null / parental viability ratio 0.79; CDH1-null viability vs mock 0.45.
For SPATA31A1 (SPATA31 subfamily A member 1) #1, the values are CDH1-null / parental viability ratio 0.98; CDH1-null viability vs mock 0.78.
SPATA31A1 (SPATA31 subfamily A member 1) #2 scored CDH1-null / parental viability ratio 0.81; CDH1-null viability vs mock 0.52.
After knock-down of VMAC, the record shows CDH1-null / parental viability ratio 1; CDH1-null viability vs mock 0.55.
Against ADGRD2 (adhesion G protein-coupled receptor D2), the entry reads CDH1-null / parental viability ratio 0.9; CDH1-null viability vs mock 0.92.
KMT2A (lysine methyltransferase 2A) gave CDH1-null / parental viability ratio 0.95; CDH1-null viability vs mock 0.89.

Single entries from above.
DEGS2 (delta 4-desaturase, sphingolipid 2), CDH1-null / parental viability ratio = 1.35
KRTDAP (keratinocyte differentiation associated protein), CDH1-null / parental viability ratio → 0.79

The list goes on:
Against AQP6 (aquaporin 6), the values are CDH1-null / parental viability ratio 1.09; CDH1-null viability vs mock 1.
EVA1B (eva-1 homolog B) showed CDH1-null / parental viability ratio 1.15; CDH1-null viability vs mock 0.92.
Against C6orf136 (chromosome 6 open reading frame 136), the values are CDH1-null / parental viability ratio 0.98; CDH1-null viability vs mock 0.84.
LCE3B (late cornified envelope 3B) gave CDH1-null / parental viability ratio 0.68; CDH1-null viability vs mock 0.52.
Depletion of SKIC3 (SKI3 subunit of superkiller complex) resulted in: CDH1-null / parental viability ratio 1.42; CDH1-null viability vs mock 0.74.
Silencing of ZNF763 (zinc finger protein 763) came out at: CDH1-null / parental viability ratio 0.93; CDH1-null viability vs mock 0.77.
Against UGGT2 (UDP-glucose glycoprotein glucosyltransferase 2), the values are CDH1-null / parental viability ratio 1.2; CDH1-null viability vs mock 1.04.
After knock-down of CHRM2 (cholinergic receptor muscarinic 2), the record shows CDH1-null / parental viability ratio 0.72; CDH1-null viability vs mock 0.76.
For F8 (coagulation factor VIII), the values are CDH1-null / parental viability ratio 0.78; CDH1-null viability vs mock 0.64.
With knock-down of PPM1H (protein phosphatase, Mg2+/Mn2+ dependent 1H) the results were CDH1-null / parental viability ratio 1.27; CDH1-null viability vs mock 1.07.
ARHGAP26 (Rho GTPase activating protein 26) showed CDH1-null / parental viability ratio 1.24; CDH1-null viability vs mock 0.62.
With knock-down of TAF2 (TATA-box binding protein associated factor 2), the screen gave CDH1-null / parental viability ratio 0.96; CDH1-null viability vs mock 0.77.
